According to PubChem BioAssay AID1347423 (Functional Genomics Laboratory (NCATS/FGL), 2020):
The campaign covered roughly 52,000 sequences. About 210 (0.4%) were called active.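 Rule for the calls: active = gene whose silencing raises cell survival under the drug, median off-target-corrected z-score across its silencing RNAs 2 or more; inactive = the rest.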 Some of the results follow.

Assay: Resistance to Poly (ADP-Ribose) Polymerase inhibitor: Gene Identification via Genome-wide siRNA Screen
Conditions: mouse BRCA2 R2336H ES cells, olaparib, CellTiter-Glo viability; hits give high values
Outline: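 Genome-wide siRNA screen (3 siRNAs/gene, 20 nM) in mouse ES cells carrying hypomorphic BRCA2 R2336H; olaparib 500 nM added 48 h post-transfection, CellTiter-Glo viability 72 h later. Normalized to plate-median negative control; MAD z-scores, gene median, seed-adjusted.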

Sequence	z-score
GGGAUCUUUGAGGAGUCUUTT against Snx12	inactive: -1.37
GGUGUUCUUCCUCUAUGAGTT against Chst2	inactive: -0.397
GGGAUGCGUUUGACUGGUGTT against Zfp455	inactive: 0.621
CCUCUUUAUCGGUGUUAUUTT against Scn11a	inactive: 1.39
GCCUGAGUAACUUUGAACATT against Rangnrf	inactive: -0.276
GGUCAAAGGAAAAAGAAAATT against Stag1	inactive: 0.127
GGUCAUGAAAAAUGACAGCTT against Klra2	inactive: 0.939
GCUGGUUAGACCCUUCCAATT against Hnf4g	inactive: -0.785
GGUGGUCCACGAAUUCAUUTT against Plekhc1	inactive: -0.223
CCACAAUCUGGCUCCUUCUTT against Ceacam1	inactive: 0.119
GGCGUACAGUCACUAUGAGTT against Crym	inactive: -2.81
GGCUUUGAACAGGAAAGACTT against D11Moh35	inactive: -1.74
GGGAUUAGUUCUAAGACAATT against Dio3	inactive: 0.056
GGUUCAACAGAAGAGGUGGTT against Exosc2	inactive: 0.665
GCUCAACACCUAUUCCGACTT against Matn3	inactive: 2.08
GGUCAAAACAAAAGGAGGGTT against Ncf4	inactive: 0.776
GGGCUUUCUACGAACCAAGTT against Ovol1	inactive: -2.72
GCGAGUACCCUAAAAACAUTT against Mmp14	inactive: 0.391
GGUGGACUUGUUUAAAAAGTT against Senp5	inactive: -0.0901
GCAUAGUUUUUGACAAAACTT against Hrmt1l6	inactive: 0.847
GGGACACAUUUAAAAAAACTT against B930096L08Rik	inactive: 0.0862
CCUGACACUUUCCUUACUUTT against D2Bwg0891e	inactive: 1.07

Sequence	z-score
GGCAUAUGCAGGUAUCUGUTT against Defb5	inactive: 0.333
GGCUAUUUUGCUGUACCUCTT against Gbgt1	inactive: -2.01
GGAACACUGGAAGAAAGAUTT against 6430596G11Rik	inactive: -0.558
CCUGAAUUCAGUCUGUUUUTT against Depdc1b	inactive: 0.405
GGUUAUUGGGAUUGAGUGUTT against Hrmt1l2	inactive: -0.145
CGUAAACACUCCUAACUUUTT against Hif1a	inactive: 0.724
GCAGUAUAACUAUCUGAAATT against 1110029E03Rik	inactive: -0.0481
GGAAAGGAAACCAAGUAAATT against Phf14	inactive: -0.396
GCUCCGAAGUGUGAAGAUUTT against Kcnn1	inactive: -1.57
CCAGAUGUCGGCAGAUAACTT against Pold4	inactive: -0.0711
GGGUAUCAUUGUGAUCUCUTT against Slc10a3	inactive: -0.477
CCUCUGAACCUGAAAAAGATT against Gm1968	inactive: -0.441
GGACAAGCAAGGUCAAUCATT against Trar1	inactive: 2.08
GGUUGAUAGGCCAAAUUGUTT against Tuba1	inactive: 0.249
GGAUCUGAAAAAAUUAAGCTT against Stat2	inactive: 0.532
GGCCAUAGAAAUAAUGCUATT against D1Ucla4	inactive: 0.779
GGUAAUGUUCUCCUUUGAATT against Dok1	inactive: 0.00302
GGCUAUACCUUUGACUAUGTT against Csnk1g1	inactive: 1.54
GGCCGGAAACUAAUCAGACTT against Mcm10	inactive: -0.104
CCUGUCGUCUCUCACUAGATT against Zfp9	inactive: -0.868
GGUCGAAAGAAGGCCUUUATT against Olfr131	inactive: -1.27
GGGUUGAAUUCAGGUUCAATT against Rsad1	inactive: 2.27

Sequence	z-score
GGAUGAUGAAGUCAAAUUUTT against Pres	inactive: 0.837
GGUCAGUGAAGUUUAACAATT against 2310046O06Rik	inactive: -0.841
GGGCUAUGUAUUGUAAAUGTT against Nxf1	inactive: -3.05
GGAGUUUACAGAAAUUAUCTT against Pecam1	inactive: 0.314
GGAGAUUAACCGCACUAUCTT against Snx19	inactive: 0.462
GCCAGAUCUGUUAACCGCCTT against Gzmk	inactive: 0.0434
GGAGCUUAGCCUCUGUAUGTT against D10Jhu81e	inactive: 0.665
GCCGAUACUUGAGCCAGUUTT against Srd5a1	inactive: -1.17
GCAGUUUAAGAGAAUAAGGTT against Apaf1	inactive: 2.1
GCCUACCACGAAGCACUUUTT against Cd38	inactive: -0.469
CCAUAUGAAGGCGCAUGGATT against C330029B10Rik	inactive: -0.126
CGUGUACUCCUGGUUUCCCTT against 1700129L13Rik	inactive: 0.655
GGCAAACCUGAAUUUACGGTT against Pcdha9	inactive: 0.794
GGCUCCAGUAAUUGAUAAATT against Sycp3	inactive: -0.903
GGCAGUGUUUUGUCAAGUUTT against Fgd4	inactive: -0.65
GGCCAAAGAGAUAUAUAUATT against Rassf3	inactive: -1.2
GCUUUCGUGUGAUCUUUUATT against BC005682	inactive: 0.975
GGUCUGAUUUUCAACACCUTT against Aqp6	inactive: -0.0489
CCAUCAUUCUCUGGUCAAATT against Sdha	inactive: 0.924
GGGAUAGUUACAUCGAAGUTT against Acate2	inactive: -0.444
GGAUUUACUUCACUAAUCCTT against V2r14	inactive: 0.14
CGCCUUCAUAAUGUAGUUGTT against Defb37	inactive: -1.15

Sequence	z-score
GGCUUUUUAGGAAACUAUATT against Olfr361	inactive: -0.363
GGAGAUCCAGAAGAGACGATT against 9030408N13Rik	inactive: 1.3
GGAAGUUUUGUUCCUGCAUTT against AI875199	inactive: -2.2
GGAGACUUAAAGGACAAAUTT against Phf17	inactive: -0.534
GCCACCUAAUUUACAAUCUTT against Nov	inactive: 1.41
GGCACGAUGGUUCAUCCUUTT against Plek2	inactive: 1.94
GCUCGUCAGCAGUAAGAAUTT against Nmbr	inactive: -2.27
GGCCUGUCCAAAGAAGUGATT against E2f3	inactive: 1.01
GCUCAAACGAAAUGAUUCATT against Gys2	inactive: 1.61
CCAUUUAUGGAAUACACCUTT against BC022651	inactive: 0.253
GGAGUAUGAUAAUGAACCATT against Areg	inactive: -0.741
CCUUGUAGUAAUAGGGAUGTT against Olfr116	inactive: -2.33
CGCAGGAUCUUAAAGAGCATT against Naga	inactive: 1.84
GGAGCUUCAAGGUCUGUCGTT against Tmc6	inactive: 1.73
CGGAACGAUCCGGAACAUCTT against Idh2	inactive: -0.892
GGUGCUUAAAACAGAAAGATT against 4732465J09Rik	inactive: -0.891
CGUAUUUAUUGACUCACUATT against Klhl17	inactive: -0.506
AUGACUAACAUUUUCCACCTT against Tpbpb	inactive: 0.0162
GCCUGAGCUUUACAAGCAGTT against Syt6	inactive: 1.06
GGCUGUGGUAGAAAAGCUGTT against Hspg2	inactive: 0.216
GGGAAGGUGGUGGAUCUACTT against Adss2	inactive: -0.357
GCCAGUAACUCAACAGAAGTT against Umod	inactive: 0.779

Sequence	z-score
CCAAGCUAUUGGCCCUGACTT against Defb38	inactive: -1.01
GGUACCUGAAAAAAACAAATT against 0610027O18Rik	inactive: 0.282
GGGAUAGUUACCUAAGACATT against Adarb2	inactive: -0.0445
CCCAUAGUGAAUCAUAGUGTT against Olfr225	inactive: 0.536
GGAAAGAUCUUAUAAUGUGTT against Zfp85-rs1	inactive: -0.656
GGAUGUCCACAUCAAGGCUTT against Dscam	inactive: 0.0516
CCCAAGCAAAUGGUGUAAUTT against Rab5a	inactive: 1.34
GGUGCAAGUGCAGUUUCAATT against Fxyd6	inactive: 1.47
GGUUGUUUUGCAUUUGUGUTT against Slc25a14	inactive: 0.124
GGUAUAGCGGUGCAUGUCATT against Bmp8a	inactive: -0.208
GCCUGUAAGAUCACUAAAATT against Atxn7l1	inactive: 2.15
CGAUCAUUAUGAACAGAUUTT against Olfr48	inactive: -0.949
GGCUUCAAUGCCAAUCGGATT against Kcnh3	inactive: 0.297
GGGCAAGUACCCAAUAAGATT against Cyp27a1	inactive: 0.292
GGGCUAAGGCGAAAAGACUTT against Msx2	inactive: -0.731
GGGCAAGUACAAGCGUAACTT against Jph4	inactive: 2.37
CGACAAGUACGAGAACGGUTT against Tcf21	inactive: -0.757
CCGGCUUUAUAAUUAGGAUTT against Olfr948	inactive: 1.1

Single values from the entries so far:
CCACAAUCUGGCUCCUUCUTT against Ceacam1 | z-score: inactive: 0.119
CCGGCUUUAUAAUUAGGAUTT against Olfr948 | z-score: inactive: 1.1
GGCGUACAGUCACUAUGAGTT against Crym | z-score: inactive: -2.81
GGUCGAAAGAAGGCCUUUATT against Olfr131 | z-score: inactive: -1.27
GGCCUGUCCAAAGAAGUGATT against E2f3 | z-score: inactive: 1.01
